Measured values reported in article PMC11647504, “The GPCR adaptor protein Norbin controls the trafficking of C5aR1 and CXCR4 in mouse neutrophils” (The Journal of Biological Chemistry, 2024).
Where a chain is given by its changes, count along the chain named. No constants are given. Whether binding was seen depends on the method and setting. For some of these results: Binding seen in cells or lysates may run through a third protein. Some results given as binding are weak or reduced against the parent protein; the word gives no strength. For some of these results: Where a sequence is shown, tags or fusion partners need not be part of it. Values belong to the binder of their own block, whether it stands above or below them.

Columns and labels:
[1] = molecular target: T1, Endogenous Norbin of mouse neutrophils (mouse (endogenous in primary neutrophils)) (UniProt Q9Z0E0); assay: co-IP; Purified Ncdn^fl/fl mouse neutrophils lysed by sonication, 0.1% NP40; endogenous Norbin (pool of Norbin antibodies) or endogenous C5aR1 (C5aR1 antibody) immunoprecipitated from the supernatant with protein A magnetic beads, on ice; western blot for C5aR1 and Norbin; unstimulated cells
T1 sequence: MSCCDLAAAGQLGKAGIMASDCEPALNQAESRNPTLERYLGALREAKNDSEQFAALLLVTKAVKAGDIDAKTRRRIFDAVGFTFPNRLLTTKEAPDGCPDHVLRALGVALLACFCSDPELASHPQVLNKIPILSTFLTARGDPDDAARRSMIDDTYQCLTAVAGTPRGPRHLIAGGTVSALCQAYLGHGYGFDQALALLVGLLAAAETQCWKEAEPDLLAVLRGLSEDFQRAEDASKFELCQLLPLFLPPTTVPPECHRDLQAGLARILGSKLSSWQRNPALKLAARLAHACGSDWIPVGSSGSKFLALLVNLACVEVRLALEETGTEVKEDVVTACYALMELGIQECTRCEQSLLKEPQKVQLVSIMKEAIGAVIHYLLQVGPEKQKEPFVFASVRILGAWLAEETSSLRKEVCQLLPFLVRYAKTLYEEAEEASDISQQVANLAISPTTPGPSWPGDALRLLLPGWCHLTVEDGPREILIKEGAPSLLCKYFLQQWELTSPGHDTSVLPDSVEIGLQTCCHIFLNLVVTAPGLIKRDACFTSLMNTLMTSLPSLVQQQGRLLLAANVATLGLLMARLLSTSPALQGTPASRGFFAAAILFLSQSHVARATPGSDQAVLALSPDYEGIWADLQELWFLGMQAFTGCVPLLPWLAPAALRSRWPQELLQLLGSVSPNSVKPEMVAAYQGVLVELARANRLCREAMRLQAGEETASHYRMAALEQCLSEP

[2] = molecular target: T2, Endogenous C5aR1 of mouse neutrophils (mouse (endogenous in primary neutrophils)) (UniProt P30993); assay: as above
T2 sequence (chain, glycosylated (as the paper says of C5aR1)): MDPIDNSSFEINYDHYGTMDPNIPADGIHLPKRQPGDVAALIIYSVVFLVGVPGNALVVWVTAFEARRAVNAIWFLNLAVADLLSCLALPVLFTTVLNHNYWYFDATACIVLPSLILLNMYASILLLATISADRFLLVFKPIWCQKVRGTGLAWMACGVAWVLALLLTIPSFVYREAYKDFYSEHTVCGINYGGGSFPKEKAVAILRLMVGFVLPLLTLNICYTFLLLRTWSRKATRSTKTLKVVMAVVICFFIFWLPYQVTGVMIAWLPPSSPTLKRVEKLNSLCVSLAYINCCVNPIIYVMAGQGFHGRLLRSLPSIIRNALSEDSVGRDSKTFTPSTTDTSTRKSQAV

[3] = molecular target: T3, GST-tagged C-terminal tail of CXCR1; assay: pull-down; GST-tagged GPCR C-terminal tails (or GST) from bacterial lysates bound to glutathione Sepharose, washed twice in PBS, 2% Triton X-100, 5 mM DTT, incubated with 50 μg purified recombinant His-Norbin for 3 h at 4 °C, washed 3 x in PBS, 1% Triton X-100; western blot with His antibody; both purified
T3 sequence: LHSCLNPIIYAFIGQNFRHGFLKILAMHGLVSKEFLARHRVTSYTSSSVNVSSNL

[4] = molecular target: T4, GST-tagged C-terminal tail of CXCR2; assay: as above
T4 sequence: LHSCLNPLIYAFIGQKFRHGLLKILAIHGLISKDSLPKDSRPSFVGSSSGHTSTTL

binding [1]: binds
B1: Endogenous C5aR1 of mouse neutrophils (receptor, UniProt P30993 1-351)
chain: T2 sequence (chain, glycosylated (as the paper says of C5aR1))
modifications: glycosylated (as the paper says of C5aR1)

binding [2]: binds
B2: Endogenous Norbin of mouse neutrophils (protein, UniProt Q9Z0E0 1-729)
chain: T1 sequence

binding [3]: no binding (tested: 50 μg His-Norbin) | binding [4]: no binding (tested: 50 μg His-Norbin)
B3: Recombinant His-Norbin (His-tagged rat Norbin protein) (protein, UniProt O35095 1-729)
chain: T1 sequence with S134C, Q381R, S455A
